PubChem BioAssay AID743121 – NCATS – 2013
Purpose: 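Genes whose silencing strengthens cell killing by camptothecin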 (primary screen). System: MDA-MB-231 cells, a human breast cancer line. Reagents: single siRNA against human genes, 20 nM siRNA (0.8 pmol per well). Timing: 120 h (drug added 48 h after transfection, read 72 h later). Conditions: camptothecin 20 nM (about EC30) for 72 h; vehicle 0.1% DMSO in parallel plates. Detection: 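CellTiter-Glo ATP signal, scaled to control siRNA as percent viability; sensitisation given as log2 of untreated divided by camptothecin-treated viability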. Direction: log2 vehicle/camptothecin viability: higher = stronger sensitisation to camptothecin. Call rule: 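Each gene scored by redundant siRNA activity (RSA) over its individual siRNA ratios; a gene is called active at p < 0.001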.
This is a random part of about 26,000 deposited reagents. 167 of all reagents (0.63%) were called active. 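Calls are per gene from RSA p-values that are not deposited; an individual active-marked siRNA can sensitise only weakly.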 Reagents against one gene are numbered here. Not all columns of the deposit are shown.

log2 vehicle/camptothecin viability, by gene and reagent
PTPN22 (protein tyrosine phosphatase non-receptor type 22): #1 0.24 inactive; #2 -0.135 inactive; #3 -0.377 inactive; #4 -0.282 inactive
PEX14 (peroxisomal biogenesis factor 14): #1 -0.132 inactive; #2 -0.0334 inactive; #3 -0.52 inactive; #4 0.151 inactive
CSNK2B (casein kinase 2 beta): #1 -0.375 inactive; #2 -0.029 inactive; #3 -0.406 inactive; #4 -0.217 inactive
HTR2B (5-hydroxytryptamine receptor 2B): #1 -0.102 inactive; #2 0.744 inactive; #3 0.409 inactive
KCNQ2 (potassium voltage-gated channel subfamily Q member 2): #1 -0.201 inactive; #2 -0.336 inactive; #3 0.00136 inactive; #4 -0.0135 inactive
DCK (deoxycytidine kinase): #1 0.199 inactive; #2 0.242 inactive; #3 -0.185 inactive; #4 -0.274 inactive
UBE2V2 (ubiquitin conjugating enzyme E2 V2): #1 0.428 inactive; #2 0.0559 inactive; #3 -0.274 inactive; #4 0.275 inactive
POLG (DNA polymerase gamma, catalytic subunit): #1 -0.0137 inactive; #2 -0.00897 inactive; #3 0.333 inactive; #4 -0.259 inactive

Look-ups from above:
PTPN22 (protein tyrosine phosphatase non-receptor type 22) #1, activity call → inactive
For “activity call”, KCNQ2 (potassium voltage-gated channel subfamily Q member 2) #3 shows inactive
UBE2V2 (ubiquitin conjugating enzyme E2 V2) #1, log2 vehicle/camptothecin viability = 0.428
Result of UBE2V2 (ubiquitin conjugating enzyme E2 V2) #3 in “log2 vehicle/camptothecin viability”: -0.274
